Publication PMC5364666
Numbering of substitutions follows the chain as printed. In names and notes the source's numbering stands. These are yes or no findings as the source states them, for the method shown. Values belong to the binder of their own block, whether it stands above or below them.

Assays:
[1] = target: T1, S. cerevisiae Prp38 D189A variant, full-length (S. cerevisiae) (UniProt Q00723); assay: SEC; analytical gel filtration of two proteins: 50 uM each, equimolar, incubated 30 min at 4 °C in SEC buffer (10 mM Tris-HCl pH 8.0, 300 mM NaCl, 0.1 mM EDTA, 1 mM DTT); Superdex 75 or Superdex 200 Increase columns at 4 °C; peak fractions by SDS-PAGE; both purified
T1 sequence: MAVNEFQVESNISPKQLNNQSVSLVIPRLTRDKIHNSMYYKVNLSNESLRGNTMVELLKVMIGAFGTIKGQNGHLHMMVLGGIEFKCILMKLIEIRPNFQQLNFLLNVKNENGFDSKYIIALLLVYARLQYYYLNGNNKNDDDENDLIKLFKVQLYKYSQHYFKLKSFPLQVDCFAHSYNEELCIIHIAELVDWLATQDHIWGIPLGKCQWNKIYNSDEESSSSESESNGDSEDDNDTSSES

[2] = target: S. cerevisiae Prp38 (pre-mRNA processing factor 38 domain containing protein), full-length wild type (S. cerevisiae) (UniProt Q00723); assay: as above

binding [1]: no binding (tested: 50 μM)
B1: S. cerevisiae Spp381 (pre-mRNA-splicing factor suppressor of prp38-1), full-length wild type (protein, UniProt P38282 1-291)
chain: MSFRHFKRRLDTSSADESSSADEEHPDQNVSLTEKSASLSHSDLGGEILNGTGKNRTPNDGQESNESDGSPESDESPESEESSDNSDSSDSDDMRPLPRPLFMKKKANNLQKATKIDQPWNAQDDARVLQTKKENMIKNIDKANQVAKNYETMKLRLNTNYSTNEELIKQCLLLDDNDEVDSEKERQKWFERQNERKQKHRRIQLAKQRESEEYEAKRFEAMQKGKDGNTKYDVILDKEKEKLDHKKQRSAEKVEKSHNNNRYKITRTKNVEFGDLGKNSRDYEETEYSVI

binding [2]: no binding (tested: 50 μM)
B2: S. cerevisiae Spp381 R192A variant, full-length (protein, UniProt P38282 1-291)
chain: B1 chain with R192A
